# Columns and labels:
# [1] = test system: rat adipocytes; conditions: Glu(γ)HXM 100 μM; staurosporine 30 min at 37° C. (FIG. 7)
# [2] = test system: rat adipocytes; conditions: cited from earlier work
structure (smiles),measurement,setting,value
CN[C@@H]1C[C@H]2O[C@@](C)([C@@H]1OC)n1c3ccccc3c3c4c(c5c6ccccc6n2c5c31)C(=O)NC4 [Staurosporine],"Inhibition of Glu(γ)HXM-evoked lipogenesis, in words",[1],in a dose-dependent manner
same,"Inhibition of vanadate-stimulated versus insulin-stimulated lipogenesis, in words",[2],preferentially inhibits the effect of vanadate

# From patent US6414029B1, “Vanadium complexes of monohydroxamates and pharmaceutical compositions comprising them” (priority 1997, dated 2002)
